This is an account of results in PMC9134706.

By UniProt entry, the sequences of proteins in these tests, tags left out.
UniProt Q9Y508: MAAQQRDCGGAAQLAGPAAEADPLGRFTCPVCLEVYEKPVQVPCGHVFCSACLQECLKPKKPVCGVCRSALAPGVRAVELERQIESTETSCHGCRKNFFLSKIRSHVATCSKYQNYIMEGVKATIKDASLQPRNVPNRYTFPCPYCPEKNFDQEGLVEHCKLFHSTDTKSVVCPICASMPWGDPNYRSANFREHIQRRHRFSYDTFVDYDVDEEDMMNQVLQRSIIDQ
UniProt P63167: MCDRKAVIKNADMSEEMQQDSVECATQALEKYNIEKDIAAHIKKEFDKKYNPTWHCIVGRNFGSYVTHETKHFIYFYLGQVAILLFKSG

Experiment [1] concerns the target Myc-RNF114 (UniProt Q9Y508). Briefly: co-IP; KYSE-150-DLEU1 cells co-transfected with the Flag-tagged and Myc-tagged constructs, treated with MG132; immunoprecipitation with anti-Flag (A) or anti-Myc (B) antibody, immunoblotting with anti-Myc or anti-Flag antibody; the text calls it 'pull-down assays'. For orientation: A western blot detects proteins with antibodies after separation by electrophoresis.

The target of experiment [2] is Flag-tagged DYNLL1 (Dynein light chain LC8-type 1) (UniProt P63167). The description is as above.

These are yes or no findings as the source states them, for the method shown. In cells and extracts the contact can be indirect. Some binding calls cover weakened binding; strength is not graded here.

On to “Flag-tagged DYNLL1 (Dynein light chain LC8-type 1) (from UniProt P63167 1-89)”, for which the binding result in experiment [1] was “binds”.

Consider “Myc-RNF114 (from UniProt Q9Y508 1-228) (enzyme)”, for which the binding result in experiment [2] is listed as “binds”.
